Test results as given in the supplement of paper PMC10849652.
The list shows a part of the results.

Chains of the proteins cited; added tags and fusions are not shown. Lines headed by an entry give the natural chain unless they say otherwise; changes in a name come on top.
UniProt Q9BQD3: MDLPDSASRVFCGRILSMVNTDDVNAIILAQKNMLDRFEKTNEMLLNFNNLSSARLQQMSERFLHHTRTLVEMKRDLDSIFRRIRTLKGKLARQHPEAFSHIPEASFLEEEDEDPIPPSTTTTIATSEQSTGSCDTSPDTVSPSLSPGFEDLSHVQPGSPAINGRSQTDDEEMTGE
UniProt Q96EK9: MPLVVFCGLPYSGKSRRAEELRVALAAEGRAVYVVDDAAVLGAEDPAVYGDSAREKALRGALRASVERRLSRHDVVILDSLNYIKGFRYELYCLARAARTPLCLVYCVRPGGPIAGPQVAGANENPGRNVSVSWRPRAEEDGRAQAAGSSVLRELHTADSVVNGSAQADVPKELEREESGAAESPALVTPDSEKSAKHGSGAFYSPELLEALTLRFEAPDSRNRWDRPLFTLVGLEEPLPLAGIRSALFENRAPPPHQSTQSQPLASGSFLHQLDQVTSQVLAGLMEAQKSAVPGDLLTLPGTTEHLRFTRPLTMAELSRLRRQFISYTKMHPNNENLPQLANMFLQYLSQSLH
UniProt Q8TBB5: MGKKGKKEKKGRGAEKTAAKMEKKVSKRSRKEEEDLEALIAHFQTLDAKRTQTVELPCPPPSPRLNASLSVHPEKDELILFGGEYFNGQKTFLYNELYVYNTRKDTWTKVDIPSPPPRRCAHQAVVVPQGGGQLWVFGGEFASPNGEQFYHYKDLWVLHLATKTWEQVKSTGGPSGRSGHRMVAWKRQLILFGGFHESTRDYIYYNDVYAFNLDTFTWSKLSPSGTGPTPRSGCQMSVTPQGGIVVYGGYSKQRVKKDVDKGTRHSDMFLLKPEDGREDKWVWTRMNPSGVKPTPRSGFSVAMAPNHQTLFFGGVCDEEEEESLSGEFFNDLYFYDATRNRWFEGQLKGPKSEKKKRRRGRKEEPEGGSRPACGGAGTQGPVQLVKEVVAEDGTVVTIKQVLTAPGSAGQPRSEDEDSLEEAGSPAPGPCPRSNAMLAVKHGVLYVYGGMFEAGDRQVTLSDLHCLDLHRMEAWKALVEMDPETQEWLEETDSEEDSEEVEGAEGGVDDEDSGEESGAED
UniProt O60333: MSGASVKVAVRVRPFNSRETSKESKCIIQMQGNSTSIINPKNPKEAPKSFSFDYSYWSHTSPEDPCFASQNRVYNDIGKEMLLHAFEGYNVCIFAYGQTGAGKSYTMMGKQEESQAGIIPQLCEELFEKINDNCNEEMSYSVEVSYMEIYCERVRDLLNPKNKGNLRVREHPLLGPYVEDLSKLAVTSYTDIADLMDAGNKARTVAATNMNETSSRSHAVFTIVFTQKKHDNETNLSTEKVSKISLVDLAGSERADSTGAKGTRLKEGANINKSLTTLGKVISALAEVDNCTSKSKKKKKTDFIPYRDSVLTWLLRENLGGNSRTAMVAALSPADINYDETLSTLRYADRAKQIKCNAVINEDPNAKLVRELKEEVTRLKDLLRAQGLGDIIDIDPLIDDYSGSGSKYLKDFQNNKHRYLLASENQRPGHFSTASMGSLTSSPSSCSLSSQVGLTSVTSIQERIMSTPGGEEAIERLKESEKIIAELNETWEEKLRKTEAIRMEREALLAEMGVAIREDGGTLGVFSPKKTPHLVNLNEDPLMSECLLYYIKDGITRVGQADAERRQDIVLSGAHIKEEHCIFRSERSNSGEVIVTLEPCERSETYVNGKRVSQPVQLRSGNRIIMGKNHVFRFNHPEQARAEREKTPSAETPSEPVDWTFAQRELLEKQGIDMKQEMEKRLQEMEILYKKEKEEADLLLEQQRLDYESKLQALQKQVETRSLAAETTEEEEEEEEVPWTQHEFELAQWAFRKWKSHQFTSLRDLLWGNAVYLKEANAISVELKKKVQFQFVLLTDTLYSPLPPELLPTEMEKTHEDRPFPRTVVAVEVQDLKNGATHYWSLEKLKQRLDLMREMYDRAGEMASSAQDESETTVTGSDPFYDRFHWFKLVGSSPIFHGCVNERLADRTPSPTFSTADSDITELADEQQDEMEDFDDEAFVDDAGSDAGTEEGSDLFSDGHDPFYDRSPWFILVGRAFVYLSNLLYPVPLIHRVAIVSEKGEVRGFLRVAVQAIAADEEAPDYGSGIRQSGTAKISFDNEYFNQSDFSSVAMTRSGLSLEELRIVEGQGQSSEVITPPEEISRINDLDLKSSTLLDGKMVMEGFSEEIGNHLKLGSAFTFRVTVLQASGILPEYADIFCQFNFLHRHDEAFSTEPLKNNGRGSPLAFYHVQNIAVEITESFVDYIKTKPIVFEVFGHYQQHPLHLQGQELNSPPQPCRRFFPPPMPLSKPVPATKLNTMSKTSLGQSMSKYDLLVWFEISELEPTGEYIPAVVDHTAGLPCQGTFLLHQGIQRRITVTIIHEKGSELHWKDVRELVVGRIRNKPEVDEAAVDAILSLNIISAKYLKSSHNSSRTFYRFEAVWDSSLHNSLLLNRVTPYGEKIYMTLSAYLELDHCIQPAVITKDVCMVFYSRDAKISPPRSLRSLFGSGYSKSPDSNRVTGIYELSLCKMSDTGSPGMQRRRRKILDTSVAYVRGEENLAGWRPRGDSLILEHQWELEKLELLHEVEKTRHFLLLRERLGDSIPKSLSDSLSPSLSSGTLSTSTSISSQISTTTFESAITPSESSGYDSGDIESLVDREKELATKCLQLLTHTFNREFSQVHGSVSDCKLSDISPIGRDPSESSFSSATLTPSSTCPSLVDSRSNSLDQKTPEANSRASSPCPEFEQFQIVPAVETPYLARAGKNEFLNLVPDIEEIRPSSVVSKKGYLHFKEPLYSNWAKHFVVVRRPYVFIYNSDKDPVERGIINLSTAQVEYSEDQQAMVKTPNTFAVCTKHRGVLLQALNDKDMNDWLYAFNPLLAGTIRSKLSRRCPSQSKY
UniProt Q96EK5: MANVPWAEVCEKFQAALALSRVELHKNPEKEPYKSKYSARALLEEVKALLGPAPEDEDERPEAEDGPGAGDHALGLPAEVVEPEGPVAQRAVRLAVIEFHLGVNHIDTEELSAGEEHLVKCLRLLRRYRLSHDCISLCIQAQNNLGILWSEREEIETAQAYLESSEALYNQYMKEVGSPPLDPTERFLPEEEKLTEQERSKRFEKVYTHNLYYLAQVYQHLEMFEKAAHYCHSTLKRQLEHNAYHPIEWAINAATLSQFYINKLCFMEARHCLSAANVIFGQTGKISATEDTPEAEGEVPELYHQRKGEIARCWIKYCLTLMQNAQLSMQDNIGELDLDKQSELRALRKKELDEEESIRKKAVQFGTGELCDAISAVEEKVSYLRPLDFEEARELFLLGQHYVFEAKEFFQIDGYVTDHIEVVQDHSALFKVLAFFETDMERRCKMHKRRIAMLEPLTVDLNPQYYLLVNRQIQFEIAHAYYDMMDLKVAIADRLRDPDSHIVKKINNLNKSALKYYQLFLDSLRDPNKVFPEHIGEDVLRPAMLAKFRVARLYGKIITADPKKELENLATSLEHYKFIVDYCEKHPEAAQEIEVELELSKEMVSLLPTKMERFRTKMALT
UniProt Q8IVT5: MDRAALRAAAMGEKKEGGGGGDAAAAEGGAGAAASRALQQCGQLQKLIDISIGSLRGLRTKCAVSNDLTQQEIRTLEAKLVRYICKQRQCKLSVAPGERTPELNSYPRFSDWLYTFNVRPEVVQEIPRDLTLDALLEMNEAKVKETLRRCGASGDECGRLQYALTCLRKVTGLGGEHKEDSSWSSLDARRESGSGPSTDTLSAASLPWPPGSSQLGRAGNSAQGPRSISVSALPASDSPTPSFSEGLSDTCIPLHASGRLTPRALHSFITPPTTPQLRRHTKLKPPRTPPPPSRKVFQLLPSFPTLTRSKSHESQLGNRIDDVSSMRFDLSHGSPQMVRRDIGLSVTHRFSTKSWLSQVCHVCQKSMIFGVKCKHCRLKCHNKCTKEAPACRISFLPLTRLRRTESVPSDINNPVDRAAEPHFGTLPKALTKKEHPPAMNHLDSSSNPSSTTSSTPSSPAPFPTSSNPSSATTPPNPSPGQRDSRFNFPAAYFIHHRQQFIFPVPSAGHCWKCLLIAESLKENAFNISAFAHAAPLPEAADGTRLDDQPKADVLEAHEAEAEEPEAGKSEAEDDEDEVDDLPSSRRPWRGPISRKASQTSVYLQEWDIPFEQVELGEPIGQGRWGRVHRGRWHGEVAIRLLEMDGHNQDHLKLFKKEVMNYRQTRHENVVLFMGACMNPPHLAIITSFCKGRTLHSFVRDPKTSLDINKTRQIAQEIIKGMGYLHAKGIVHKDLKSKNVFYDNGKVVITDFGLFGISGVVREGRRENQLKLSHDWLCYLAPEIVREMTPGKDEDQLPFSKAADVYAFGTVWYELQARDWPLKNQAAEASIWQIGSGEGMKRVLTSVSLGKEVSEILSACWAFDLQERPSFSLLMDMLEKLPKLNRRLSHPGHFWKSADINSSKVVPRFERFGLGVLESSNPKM
UniProt Q96AT1: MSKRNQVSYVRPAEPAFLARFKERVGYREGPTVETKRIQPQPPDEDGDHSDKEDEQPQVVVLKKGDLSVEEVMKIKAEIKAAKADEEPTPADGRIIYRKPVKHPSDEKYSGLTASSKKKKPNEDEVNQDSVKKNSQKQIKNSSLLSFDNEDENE
UniProt Q1ED39: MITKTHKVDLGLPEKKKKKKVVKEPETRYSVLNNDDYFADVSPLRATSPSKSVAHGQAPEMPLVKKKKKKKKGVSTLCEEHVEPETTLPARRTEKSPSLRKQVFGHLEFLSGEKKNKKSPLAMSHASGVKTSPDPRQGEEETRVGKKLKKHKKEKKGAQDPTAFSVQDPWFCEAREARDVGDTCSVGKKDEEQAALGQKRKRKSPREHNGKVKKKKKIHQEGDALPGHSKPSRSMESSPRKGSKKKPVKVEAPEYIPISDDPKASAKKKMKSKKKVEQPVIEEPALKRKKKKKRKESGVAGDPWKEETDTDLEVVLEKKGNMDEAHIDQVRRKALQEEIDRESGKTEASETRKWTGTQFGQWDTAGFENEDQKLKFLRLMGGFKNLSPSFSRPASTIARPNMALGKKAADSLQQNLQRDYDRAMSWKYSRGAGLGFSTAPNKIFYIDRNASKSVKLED
UniProt P50053: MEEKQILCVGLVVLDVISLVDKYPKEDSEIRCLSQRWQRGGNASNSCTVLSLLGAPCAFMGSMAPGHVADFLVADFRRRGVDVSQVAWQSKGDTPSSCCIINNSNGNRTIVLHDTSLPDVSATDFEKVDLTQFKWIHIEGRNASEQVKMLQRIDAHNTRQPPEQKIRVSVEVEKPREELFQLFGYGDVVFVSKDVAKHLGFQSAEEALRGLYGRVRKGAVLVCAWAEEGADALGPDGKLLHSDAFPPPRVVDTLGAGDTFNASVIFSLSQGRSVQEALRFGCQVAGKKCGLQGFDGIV
UniProt P28838: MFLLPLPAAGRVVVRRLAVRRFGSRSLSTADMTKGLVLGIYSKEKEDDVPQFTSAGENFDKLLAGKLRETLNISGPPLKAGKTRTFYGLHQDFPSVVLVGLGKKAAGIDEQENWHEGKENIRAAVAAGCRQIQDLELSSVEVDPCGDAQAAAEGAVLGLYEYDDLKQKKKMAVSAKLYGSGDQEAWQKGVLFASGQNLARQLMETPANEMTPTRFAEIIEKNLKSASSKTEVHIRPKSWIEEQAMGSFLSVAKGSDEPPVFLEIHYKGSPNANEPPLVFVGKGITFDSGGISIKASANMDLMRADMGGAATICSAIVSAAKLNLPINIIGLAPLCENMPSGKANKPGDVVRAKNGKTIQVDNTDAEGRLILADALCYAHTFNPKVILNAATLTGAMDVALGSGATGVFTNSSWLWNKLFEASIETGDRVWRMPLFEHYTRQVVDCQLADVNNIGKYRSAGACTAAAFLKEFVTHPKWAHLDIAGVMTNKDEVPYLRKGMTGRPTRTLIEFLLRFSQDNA
UniProt Q92945: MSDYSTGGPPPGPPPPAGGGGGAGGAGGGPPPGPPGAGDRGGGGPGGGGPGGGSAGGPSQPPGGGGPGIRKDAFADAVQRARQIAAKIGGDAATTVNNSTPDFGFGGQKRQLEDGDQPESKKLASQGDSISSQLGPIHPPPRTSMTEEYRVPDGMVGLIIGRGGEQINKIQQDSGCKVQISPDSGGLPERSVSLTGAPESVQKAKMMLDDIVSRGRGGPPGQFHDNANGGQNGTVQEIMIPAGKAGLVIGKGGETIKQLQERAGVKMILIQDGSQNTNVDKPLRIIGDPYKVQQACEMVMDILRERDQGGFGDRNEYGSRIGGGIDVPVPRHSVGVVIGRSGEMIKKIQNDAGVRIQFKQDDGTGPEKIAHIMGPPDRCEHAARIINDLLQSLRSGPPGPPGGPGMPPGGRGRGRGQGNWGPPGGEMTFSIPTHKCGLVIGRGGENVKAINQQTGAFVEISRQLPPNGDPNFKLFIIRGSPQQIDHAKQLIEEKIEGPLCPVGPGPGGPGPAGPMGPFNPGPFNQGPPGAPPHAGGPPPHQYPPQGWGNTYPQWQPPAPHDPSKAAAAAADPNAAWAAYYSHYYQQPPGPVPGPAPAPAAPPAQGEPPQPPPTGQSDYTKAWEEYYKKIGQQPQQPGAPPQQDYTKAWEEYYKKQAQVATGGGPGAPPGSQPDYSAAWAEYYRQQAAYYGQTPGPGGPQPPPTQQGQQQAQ

Key:
Test in all cases: log2 fold change, soluble protein after heating vs DMSO (PISA); higher = thermal stabilisation; K562 lysate, 10 uM; active = over 0.2 and 3.5 SD of the protein, either way, in both replicates (recomputed)
[1] = compound: CN1CC[C@H](c2c(O)cc(O)c3c(=O)cc(-c4ccccc4Cl)oc23)[C@H](O)C1 [alvocidib]
Summary of the method: (§1)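 Thermal stability, expressed as log-two fold change relative to solvent controls, is given from duplicates. Crude K562 extract in PBS pH 7.4 with 1 mM MgCl2, at 1 mg/mL protein, was treated with 10 μM compound for 30 min and heated in aliquots for 3 min across 48°C-58°C. After pooling, adjustment to 0.5% NP-40 at 4°C and centrifugation at 21,000xg for 90 min, supernatant protein was measured by TMTpro 16plex LC-MS/MS with channel sums equalised.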

[2] = compound: CN1CCc2c(c3ccccc3n2Cc2ccc(C(=O)NO)cc2)C1 [Tubastatin A]
Summary of the method: as §1

[3] = compound: CNC(=O)C1=CC=CC=C1NC2=NC(=NC=C2Cl)NC3=C(C=C(C=C3)N4CCOCC4)OC
Summary of the method: as §1

[4] = compound: CNC(=O)c1ccc(Nc2ncc(C(F)(F)F)c(NCc3nccnc3N(C)S(C)(=O)=O)n2)cc1 [defactinib]
Summary of the method: as §1

[5] = compound: CNc1nc(-c2ccc3c(N)n[nH]c3c2)cc(N2C[C@@H](C(=O)NC3CCCCC3)CC[C@H]2C)n1
Summary of the method: as §1

[6] = compound: COC(=O)N[C@@H](C)CNc1nccc(-c2cn(C(C)C)nc2-c2cc(Cl)cc(NS(C)(=O)=O)c2F)n1 [encorafenib]
Summary of the method: as §1

[7] = compound: COC(=O)[C@H](CCSC)NC(=O)C1=C(C=C(C=C1)NC[C@H](CS)N)C2=CC=CC=C2
Summary of the method: as §1

[8] = compound: COc1cc(Nc2ncc3c(n2)-c2ccc(Cl)cc2C(c2c(F)cccc2OC)=NC3)ccc1C(=O)O [alisertib]
Summary of the method: as §1

[9] = compound: COc1cc2nc(-c3cc(F)ccc3O)nc(N[C@@H]3CNC[C@H]3C(C)(C)O)c2cc1OC
Summary of the method: as §1

[10] = compound: COc1cc2ncnc(Nc3ccc(F)c(Cl)c3)c2cc1OCCCN1CCOCC1 [gefitinib]
Summary of the method: as §1

[11] = compound: CS(=O)(=O)CCNCc1ccc(-c2ccc3ncnc(Nc4ccc(OCc5cccc(F)c5)c(Cl)c4)c3c2)o1 [lapatinib]
Summary of the method: as §1

[12] = compound: CS(=O)(=O)N1CCN(Cc2cc3nc(-c4cccc5[nH]ncc45)nc(N4CCOCC4)c3s2)CC1 [pictilisib]
Summary of the method: as §1

[13] = compound: C[C@@H](Oc1cc(-c2cnn(C3CCNCC3)c2)cnc1N)c1c(Cl)ccc(F)c1Cl [crizotinib]
Summary of the method: as §1

[14] = compound: C[C@H](C1=CC=C(C=C1)C(=O)NC2=C3C=CNC3=NC=C2)N
Summary of the method: as §1

[15] = compound: C[C@H](Nc1ncnc2nc[nH]c12)c1cc2cccc(Cl)c2c(=O)n1-c1ccccc1 [duvelisib]
Summary of the method: as §1

[16] = compound: Cc1cc(Nc2cc(CN3CCOCC3)c3nc(C)c(Cc4ccc(Cl)cc4F)n3n2)n[nH]1 [gandotinib]
Summary of the method: as §1

[17] = compound: Cc1cc(Nc2cc(N3CCN(C)CC3)nc(Sc3ccc(NC(=O)C4CC4)cc3)n2)n[nH]1 [tozasertib]
Summary of the method: as §1

[18] = compound: Cc1ccc(-n2nc(C(C)(C)C)cc2NC(=O)Nc2ccc(OCCN3CCOCC3)c3ccccc23)cc1 [doramapimod]
Summary of the method: as §1

[19] = compound: Cc1ccc(NC(=O)c2ccc(CN3CC[C@H](N(C)C)C3)c(C(F)(F)F)c2)cc1Nc1nccc(-c2cncnc2)n1 [bafetinib]
Summary of the method: as §1

[20] = compound: Cc1cccc(CC(=O)N2CCc3c2ccc(-c2cn(C)c4ncnc(N)c24)c3F)n1
Summary of the method: as §1

Measured: log2 fold change

LANCL1 (UniProt O43813)
inactive: [1] -0.029 | [2] 0.031 | [3] 0 | [4] -0.003 | [5] -0.067 | [6] -0.011 | [7] 0.016 | [8] 0.009 | [9] 0.006 | [10] -0.024 | [11] -0.006 | [12] -0.033 | [13] 0.001 | [14] -0.036 | [15] -0.001 | [16] 0 | [17] 0.013 | [18] 0.022 | [19] -0.014 | [20] 0.033

KXD1 (UniProt Q9BQD3)
inactive: [1] 0 | [2] 0.034 | [3] 0.017 | [4] 0.027 | [5] 0.012 | [6] 0.016 | [7] -0.048 | [8] -0.075 | [9] 0.038 | [10] 0.024 | [11] -0.033 | [12] 0.115 | [13] -0.031 | [14] 0.069 | [15] 0.079 | [16] 0.058 | [17] -0.014 | [18] -0.002 | [19] -0.079 | [20] -0.008

KPNA2 (UniProt P52292)
inactive: [1] 0.018 | [2] -0.083 | [3] -0.012 | [4] 0.012 | [5] -0.013 | [6] -0.005 | [7] 0.122 | [8] 0.008 | [9] -0.017 | [10] 0.003 | [11] -0.016 | [12] 0.024 | [13] -0.063 | [14] -0.001 | [15] 0.011 | [16] -0.066 | [17] 0.017 | [18] 0.003 | [19] -0.028 | [20] 0.05

KTI12 (UniProt Q96EK9)
inactive: [1] -0.052 | [2] -0.072 | [3] 0.018 | [4] -0.017 | [5] 0.041 | [6] -0.027 | [7] -0.024 | [8] -0.018 | [9] 0 | [10] 0.01 | [11] 0.029 | [12] 0.023 | [13] -0.157 | [14] -0.049 | [15] 0.028 | [16] -0.005 | [17] -0.028 | [18] -0.079 | [19] -0.009 | [20] 0.085

KLHDC4 (UniProt Q8TBB5)
inactive: [1] 0.049 | [2] 0.009 | [3] 0.004 | [4] -0.014 | [5] -0.022 | [6] 0.029 | [7] -0.07 | [8] 0.046 | [9] 0.044 | [10] -0.016 | [11] -0.063 | [12] -0.03 | [13] -0.013 | [14] 0.099 | [15] 0.049 | [16] -0.082 | [17] 0.056 | [18] 0.024 | [19] 0.034 | [20] 0

KIF1B isoform 2 (UniProt O60333)
inactive: [1] 0.005 | [2] -0.034 | [3] 0.025 | [4] 0 | [5] 0.035 | [6] 0.003 | [7] 0.087 | [8] 0.018 | [9] -0.047 | [10] -0.021 | [11] 0.013 | [12] -0.009 | [13] -0.021 | [14] -0.015 | [15] 0.007 | [16] -0.025 | [17] -0.021 | [18] 0.051 | [19] -0.025 | [20] 0.046

Reprinted at random: 2 records from the list
KTI12 (UniProt Q96EK9)
inactive: [1] -0.052 | [2] -0.072 | [3] 0.018 | [4] -0.017 | [5] 0.041 | [6] -0.027 | [7] -0.024 | [8] -0.018 | [9] 0 | [10] 0.01 | [11] 0.029 | [12] 0.023 | [13] -0.157 | [14] -0.049 | [15] 0.028 | [16] -0.005 | [17] -0.028 | [18] -0.079 | [19] -0.009 | [20] 0.085

LANCL1 (UniProt O43813)
inactive: [1] -0.029 | [2] 0.031 | [3] 0 | [4] -0.003 | [5] -0.067 | [6] -0.011 | [7] 0.016 | [8] 0.009 | [9] 0.006 | [10] -0.024 | [11] -0.006 | [12] -0.033 | [13] 0.001 | [14] -0.036 | [15] -0.001 | [16] 0 | [17] 0.013 | [18] 0.022 | [19] -0.014 | [20] 0.033

(list continues)

KIFBP (UniProt Q96EK5)
inactive: [1] 0.017 | [2] -0.09 | [3] 0.026 | [4] 0.058 | [5] -0.011 | [6] 0.025 | [7] 0.103 | [8] -0.003 | [9] -0.015 | [10] -0.012 | [11] 0 | [12] -0.029 | [13] -0.007 | [14] -0.001 | [15] -0.005 | [16] -0.096 | [17] 0.005 | [18] -0.005 | [19] -0.02 | [20] 0.002

KSR1 (UniProt Q8IVT5)
inactive: [1] 0.214 | [2] -0.086 | [3] -0.042 | [4] -0.045 | [5] -0.038 | [6] 0.075 | [7] 0.257 | [8] 0.028 | [9] 0.115 | [10] -0.016 | [11] -0.107 | [12] 0.064 | [13] -0.015 | [14] 0.006 | [15] -0.026 | [16] -0.087 | [17] 0.017 | [18] -0.065 | [19] -0.038 | [20] -0.156

KIAA1143 (UniProt Q96AT1)
inactive: [1] -0.009 | [2] 0.076 | [3] 0.046 | [4] 0.073 | [5] 0.05 | [6] -0.022 | [7] -0.039 | [8] 0.01 | [9] 0.017 | [10] 0.013 | [11] 0.005 | [12] 0.024 | [13] -0.059 | [14] -0.01 | [15] 0.028 | [16] 0.083 | [17] -0.044 | [18] 0.044 | [19] -0.025 | [20] 0.008

KNOP1 (UniProt Q1ED39)
inactive: [1] -0.004 | [2] 0.151 | [3] 0.062 | [5] 0.337 | [6] -0.023 | [7] 0.022 | [8] -0.065 | [9] 0.097 | [10] -0.03 | [11] -0.046 | [12] 0.03 | [13] -0.068 | [14] 0.004 | [15] 0.022 | [16] 0.027 | [17] -0.085 | [18] 0.1 | [19] -0.06 | [20] -0.011
active: [4] 0.413

KHK isoform 2 (UniProt P50053)
inactive: [1] 0.058 | [2] -0.001 | [3] -0.057 | [4] -0.038 | [5] -0.068 | [6] 0.03 | [7] -0.02 | [8] 0.008 | [9] 0.083 | [10] -0.038 | [11] -0.066 | [12] -0.015 | [13] -0.032 | [15] 0 | [16] -0.058 | [17] 0.018 | [18] 0.031 | [19] 0.001 | [20] -0.163
active: [14] 0.248

KMT2A isoform 3 (UniProt Q03164)
inactive: [1] -0.073 | [2] 0.011 | [3] -0.07 | [4] -0.054 | [5] -0.069 | [6] -0.118 | [7] -0.037 | [8] -0.371 | [9] 0.061 | [10] -0.172 | [11] -0.07 | [12] -0.102 | [13] -0.033 | [14] 0.091 | [15] 0.013 | [16] 0.013 | [17] 0.148 | [18] 0.026 | [19] -0.41 | [20] 0.069

KIF3A (UniProt Q9Y496)
inactive: [1] -0.087 | [2] 0.205 | [3] -0.017 | [4] -0.015 | [5] -0.025 | [6] 0 | [7] 0.05 | [8] 0.06 | [9] 0.072 | [10] -0.053 | [11] -0.12 | [12] 0.072 | [13] 0.088 | [14] 0.047 | [15] 0 | [16] -0.065 | [17] -0.006 | [18] 0.131 | [19] -0.027 | [20] 0.039

LAP3 (UniProt P28838)
active: [14] -0.531 | [16] 0.385 | [20] 0.331
inactive: [1] -0.249 | [2] 0.082 | [3] 0.069 | [4] -0.063 | [5] 0.191 | [6] 0.006 | [7] 0.004 | [8] -0.02 | [9] 0.038 | [10] -0.004 | [11] -0.021 | [12] 0.003 | [13] -0.102 | [15] 0.034 | [17] -0.126 | [18] 0.02 | [19] 0.014

KIF22 (UniProt Q14807)
inactive: [1] -0.121 | [2] 0.099 | [3] -0.059 | [4] 0.175 | [5] 0.137 | [6] 0.012 | [7] -0.017 | [8] 0.011 | [9] 0.171 | [10] -0.013 | [11] -0.149 | [12] -0.07 | [13] -0.29 | [14] -0.201 | [15] -0.02 | [16] 0.238 | [17] -0.043 | [18] -0.009 | [19] -0.068 | [20] 0.33

KHSRP (UniProt Q92945)
inactive: [1] -0.002 | [2] 0.042 | [3] -0.03 | [4] 0.005 | [5] -0.037 | [6] 0.029 | [7] -0.044 | [8] 0.03 | [9] -0.015 | [10] -0.004 | [11] 0.002 | [12] -0.008 | [13] 0.092 | [14] 0.016 | [15] 0.014 | [16] 0.015 | [17] 0.027 | [18] -0.011 | [19] 0.021 | [20] -0.036
